These are yes or no findings as the source states them, for the method shown. Binding seen in cells or lysates may run through a third protein.

This test deals with T1, endogenous UBN1 (mES cells) (mouse (endogenous in mES cells)), Q4G0F8.
T1 chain: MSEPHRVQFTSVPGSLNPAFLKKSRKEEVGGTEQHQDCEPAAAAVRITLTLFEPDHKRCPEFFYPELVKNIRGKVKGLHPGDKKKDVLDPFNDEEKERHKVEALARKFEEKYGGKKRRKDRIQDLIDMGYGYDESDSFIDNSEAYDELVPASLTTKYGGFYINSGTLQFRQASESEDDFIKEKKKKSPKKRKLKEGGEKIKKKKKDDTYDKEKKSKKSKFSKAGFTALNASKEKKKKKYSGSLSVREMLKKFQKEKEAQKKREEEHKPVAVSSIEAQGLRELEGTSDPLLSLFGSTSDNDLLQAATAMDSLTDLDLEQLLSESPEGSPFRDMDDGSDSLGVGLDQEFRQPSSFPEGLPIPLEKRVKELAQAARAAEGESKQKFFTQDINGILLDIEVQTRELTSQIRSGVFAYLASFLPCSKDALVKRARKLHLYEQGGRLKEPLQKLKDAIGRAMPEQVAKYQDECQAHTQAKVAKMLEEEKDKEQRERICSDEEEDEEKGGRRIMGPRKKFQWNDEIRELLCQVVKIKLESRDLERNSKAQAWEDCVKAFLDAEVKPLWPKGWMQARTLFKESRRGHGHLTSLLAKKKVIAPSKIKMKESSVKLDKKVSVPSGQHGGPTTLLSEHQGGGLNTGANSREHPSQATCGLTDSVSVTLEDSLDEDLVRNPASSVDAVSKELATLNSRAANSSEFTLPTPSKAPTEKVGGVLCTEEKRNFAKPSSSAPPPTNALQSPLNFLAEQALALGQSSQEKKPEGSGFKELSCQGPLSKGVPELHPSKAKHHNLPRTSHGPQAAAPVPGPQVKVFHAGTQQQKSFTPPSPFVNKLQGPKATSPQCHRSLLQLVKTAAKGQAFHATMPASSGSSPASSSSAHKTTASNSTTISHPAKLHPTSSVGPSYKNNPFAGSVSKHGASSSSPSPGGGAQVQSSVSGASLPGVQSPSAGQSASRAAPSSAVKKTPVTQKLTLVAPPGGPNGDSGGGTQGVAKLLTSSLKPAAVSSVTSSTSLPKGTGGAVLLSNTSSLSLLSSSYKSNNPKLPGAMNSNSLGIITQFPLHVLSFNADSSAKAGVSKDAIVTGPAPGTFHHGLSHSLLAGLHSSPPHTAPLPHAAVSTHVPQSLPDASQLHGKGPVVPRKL
Description: co-IP; endogenous proteins of mES cells; in-house UBN1 antibody or in-house UBN2 antibody, protein-A agarose beads, RIPA buffer; Western blot. The conditions noted are these: remark: other sources report otherwise. A general note: Immunoblotting shows a protein as a band on a membrane.

B1: endogenous UBN2 (mES cells), Q80WC1 1-1314 (protein)
chain: MAEPRRVAFISLSPVRRREADFAGAEREPPRLEPQPYREPARAEPAPRADAQPPARDKPLPQREVSRAEPPMALQREPPRPEPPPPPLPLQTPPPRESASRAEPPPRPPKETVRLELVLKDPTDESCVEFSYPELLLCGEQRKKLVHTEDPFTDEHKERQEVEMLAKKFEMKYGGKARKHRKDRLQDLIDIGFGYDETDPFIDNSEAYDELVPASLTTKYGGFYINTGTLQFRQASDTEEDDFTDNQKHKPPKVPKIKEDDIEVKKRKRKEEGEKEKKPRKKVPKQLGVVALNSHKSEKKKKRYKDSLSLAAMIRKFQKEKDALKKESTPKVPVTPSSSSLPKPPCVTTALGDDIPDLGLNSADPDLPIFVSTNEHELFQEAENALEMLDDFDFDRLLDATSDGSPLSESGGENGNTTHPTFPSQVVPKVVPTLPEGLPVLLEKRIEDLRVAAKLFDEEGRKKFFTQDMNNILLDIELQLQELGPVIRSGVYSHLEAFVPCNKETLVKRLKKLHLNVQDDRLREPLQKLKLAVSNVMPEQLFKYQEDCQARSQAKCAKLQADEEREKNGSDDDDDEKPGKRVIGPRKKFHWDDTIRTLLCNLVEIKLGCYELEPNKSQSAEDYLKSFMETEVKPLWPKGWMQARMLFKESRSVHNHLTSAPAKKKVIPASKPKVKECSPKKDPKAPASVVASGGGPSTSSSTSIVASASSSSAPAQETICLDDSLDEDLSFPSASLDLVSEALAVINNGNKGPSVGSRLNVPTTKPRPGLREEKLASIMSKLPLATPKKLDSTQTAHSSSLIAGHTGPVPKKPQDLAHTGISSGLIAGSSIQNPKVSLEPLPARLLQQGLQRSSQIHASSSSQTHVSSSQAQAAASSHALGTSEAQDASSLTQVTKVHQHSAVQQNYVSPLQATISKSQTNPVVKLSNNPQLSCSSQLLKTSDKPLMYRLPLSTPSPGNGSQGPHPLVSRTAPSTTTSSNYLAKAMVSQISTQGFKSPFSMAASPKLAASPKPATSPKPLPSPKPSVSPKPSLSAKPSISTKQISKSNPAPKPAVCPSSSSPNTLVAQSSHSTSNNPVHKQPSGMNISRQSPTLNLLPSNRTSGLPTTKTLQAPSKLTNSSSTGTAGKNSLSGIPMNVPASRGSNLNSSGANRTSLSGGTGSGTQGATKPLSTPHRPTSASGSSVVTASVQSTAGASLLANASPLTLMTSPLSVTNQTVTPFGMLGGLVPVTMPFQFPLELLGFGTDTAGVTATSGSTSAALHHSLTQNLLKSLQPGAQHAAALPHSPLPAHLQQAFNDGGQSKGDTKLPRKPQ
Take B1: the binding result is given as “no binding”.

Source of the values: article PMC6171237.
